± gives the standard deviation of the averaged measurements. The list shows a part of the results.

Sequences of proteins named here, by UniProt entry; tags and fusion partners are left off. A change or cut given only in a name is not applied to a line headed by its entry.
UniProt P61011: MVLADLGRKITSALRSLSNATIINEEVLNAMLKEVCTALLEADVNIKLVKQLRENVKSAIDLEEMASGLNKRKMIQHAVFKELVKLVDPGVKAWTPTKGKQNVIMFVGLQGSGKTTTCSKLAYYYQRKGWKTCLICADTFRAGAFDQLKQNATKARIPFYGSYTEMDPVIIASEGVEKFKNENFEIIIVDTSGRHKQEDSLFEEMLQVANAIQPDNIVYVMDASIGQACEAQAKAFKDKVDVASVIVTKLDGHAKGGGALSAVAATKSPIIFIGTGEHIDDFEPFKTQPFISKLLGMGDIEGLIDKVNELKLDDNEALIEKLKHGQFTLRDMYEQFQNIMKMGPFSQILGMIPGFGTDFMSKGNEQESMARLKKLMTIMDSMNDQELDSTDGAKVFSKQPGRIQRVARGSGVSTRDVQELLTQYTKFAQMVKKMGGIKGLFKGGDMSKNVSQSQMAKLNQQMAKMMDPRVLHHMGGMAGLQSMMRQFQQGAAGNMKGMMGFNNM
UniProt P53367: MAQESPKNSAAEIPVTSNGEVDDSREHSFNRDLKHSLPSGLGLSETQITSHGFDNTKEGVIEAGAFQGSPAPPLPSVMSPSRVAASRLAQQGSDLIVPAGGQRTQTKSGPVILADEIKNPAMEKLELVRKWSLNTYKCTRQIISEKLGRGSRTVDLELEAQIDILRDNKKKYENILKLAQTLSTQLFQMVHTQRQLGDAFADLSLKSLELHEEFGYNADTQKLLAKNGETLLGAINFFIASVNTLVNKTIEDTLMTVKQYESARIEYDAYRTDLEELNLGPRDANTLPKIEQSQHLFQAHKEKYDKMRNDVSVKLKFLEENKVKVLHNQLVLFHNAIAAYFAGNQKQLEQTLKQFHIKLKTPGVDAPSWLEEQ
UniProt P82970: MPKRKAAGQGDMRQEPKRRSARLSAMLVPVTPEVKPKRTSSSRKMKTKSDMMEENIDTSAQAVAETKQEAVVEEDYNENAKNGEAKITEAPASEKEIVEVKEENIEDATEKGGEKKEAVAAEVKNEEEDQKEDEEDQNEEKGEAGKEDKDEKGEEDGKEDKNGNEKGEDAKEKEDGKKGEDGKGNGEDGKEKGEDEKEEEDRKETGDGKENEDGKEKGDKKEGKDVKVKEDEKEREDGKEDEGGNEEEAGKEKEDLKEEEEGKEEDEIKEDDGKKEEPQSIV
UniProt P84103: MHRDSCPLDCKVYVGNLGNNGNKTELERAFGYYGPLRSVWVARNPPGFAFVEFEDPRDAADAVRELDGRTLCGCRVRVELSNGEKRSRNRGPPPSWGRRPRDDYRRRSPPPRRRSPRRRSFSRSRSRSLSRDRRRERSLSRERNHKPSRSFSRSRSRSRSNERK
UniProt P50552: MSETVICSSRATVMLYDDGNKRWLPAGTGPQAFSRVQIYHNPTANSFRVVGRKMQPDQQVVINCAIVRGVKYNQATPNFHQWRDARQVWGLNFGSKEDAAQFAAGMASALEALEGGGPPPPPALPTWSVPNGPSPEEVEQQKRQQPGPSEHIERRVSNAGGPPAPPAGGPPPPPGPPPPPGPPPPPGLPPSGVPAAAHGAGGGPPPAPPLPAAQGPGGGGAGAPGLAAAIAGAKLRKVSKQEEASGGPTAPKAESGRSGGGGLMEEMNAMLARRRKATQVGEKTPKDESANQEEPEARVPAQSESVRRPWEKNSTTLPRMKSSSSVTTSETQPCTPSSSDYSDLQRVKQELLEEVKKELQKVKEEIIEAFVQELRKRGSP
UniProt P55039: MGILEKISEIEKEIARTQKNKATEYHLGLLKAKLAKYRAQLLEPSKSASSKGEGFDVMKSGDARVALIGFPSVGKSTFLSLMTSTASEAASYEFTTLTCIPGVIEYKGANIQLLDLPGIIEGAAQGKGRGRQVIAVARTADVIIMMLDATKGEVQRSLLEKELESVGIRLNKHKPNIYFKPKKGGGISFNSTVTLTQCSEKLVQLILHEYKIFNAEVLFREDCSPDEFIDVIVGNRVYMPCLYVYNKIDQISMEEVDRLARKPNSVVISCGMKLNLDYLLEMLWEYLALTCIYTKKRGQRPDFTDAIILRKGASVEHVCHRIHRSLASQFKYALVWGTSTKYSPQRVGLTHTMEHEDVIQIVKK
UniProt P61163, whole entry: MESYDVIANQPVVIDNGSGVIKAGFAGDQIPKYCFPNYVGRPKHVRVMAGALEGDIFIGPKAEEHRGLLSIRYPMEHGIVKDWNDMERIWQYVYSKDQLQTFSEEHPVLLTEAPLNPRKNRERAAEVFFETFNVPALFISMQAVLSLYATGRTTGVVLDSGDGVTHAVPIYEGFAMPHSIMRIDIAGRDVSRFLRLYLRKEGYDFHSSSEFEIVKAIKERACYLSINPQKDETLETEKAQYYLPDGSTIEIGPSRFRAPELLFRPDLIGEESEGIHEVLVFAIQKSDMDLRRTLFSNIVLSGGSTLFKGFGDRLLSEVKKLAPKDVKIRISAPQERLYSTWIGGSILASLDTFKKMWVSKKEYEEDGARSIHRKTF
UniProt P52655, whole entry: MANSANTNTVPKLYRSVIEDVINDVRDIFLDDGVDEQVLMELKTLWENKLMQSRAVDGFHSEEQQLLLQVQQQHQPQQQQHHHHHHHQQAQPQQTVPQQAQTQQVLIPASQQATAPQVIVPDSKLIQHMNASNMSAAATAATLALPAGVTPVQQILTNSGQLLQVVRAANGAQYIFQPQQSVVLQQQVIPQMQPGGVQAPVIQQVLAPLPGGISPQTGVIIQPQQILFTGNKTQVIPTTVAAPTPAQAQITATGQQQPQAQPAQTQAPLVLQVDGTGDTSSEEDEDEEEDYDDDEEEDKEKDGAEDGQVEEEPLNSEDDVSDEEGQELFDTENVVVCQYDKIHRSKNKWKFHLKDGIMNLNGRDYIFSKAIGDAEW
UniProt P61019: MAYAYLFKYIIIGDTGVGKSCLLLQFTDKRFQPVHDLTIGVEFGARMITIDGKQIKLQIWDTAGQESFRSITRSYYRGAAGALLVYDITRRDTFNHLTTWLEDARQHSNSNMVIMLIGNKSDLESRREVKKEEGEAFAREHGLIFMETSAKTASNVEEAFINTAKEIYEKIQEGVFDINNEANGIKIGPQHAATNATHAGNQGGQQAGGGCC
UniProt P55060: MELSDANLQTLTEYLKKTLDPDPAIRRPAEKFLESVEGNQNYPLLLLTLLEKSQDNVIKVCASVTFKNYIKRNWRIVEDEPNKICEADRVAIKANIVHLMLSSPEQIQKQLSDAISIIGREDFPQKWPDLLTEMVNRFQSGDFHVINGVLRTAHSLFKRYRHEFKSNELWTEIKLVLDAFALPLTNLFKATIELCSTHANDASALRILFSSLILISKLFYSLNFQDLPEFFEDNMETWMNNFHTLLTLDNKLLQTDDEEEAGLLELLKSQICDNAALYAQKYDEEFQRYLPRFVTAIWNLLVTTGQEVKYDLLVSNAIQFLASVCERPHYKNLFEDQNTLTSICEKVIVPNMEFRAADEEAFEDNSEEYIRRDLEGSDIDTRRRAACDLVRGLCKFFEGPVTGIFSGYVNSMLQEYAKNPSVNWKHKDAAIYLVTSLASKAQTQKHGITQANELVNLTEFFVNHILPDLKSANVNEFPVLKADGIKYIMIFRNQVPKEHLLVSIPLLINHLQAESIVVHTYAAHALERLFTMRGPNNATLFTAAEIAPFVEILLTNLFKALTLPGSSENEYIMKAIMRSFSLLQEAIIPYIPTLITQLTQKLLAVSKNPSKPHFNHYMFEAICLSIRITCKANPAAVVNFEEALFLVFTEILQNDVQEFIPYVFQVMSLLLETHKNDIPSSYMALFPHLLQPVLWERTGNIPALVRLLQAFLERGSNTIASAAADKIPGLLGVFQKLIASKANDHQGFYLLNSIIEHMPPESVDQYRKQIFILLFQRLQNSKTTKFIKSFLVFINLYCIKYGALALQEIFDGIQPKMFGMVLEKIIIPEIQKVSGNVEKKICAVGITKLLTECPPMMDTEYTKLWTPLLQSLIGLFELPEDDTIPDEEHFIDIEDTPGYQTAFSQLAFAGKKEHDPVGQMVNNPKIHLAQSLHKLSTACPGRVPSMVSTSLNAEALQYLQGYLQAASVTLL
UniProt Q00266: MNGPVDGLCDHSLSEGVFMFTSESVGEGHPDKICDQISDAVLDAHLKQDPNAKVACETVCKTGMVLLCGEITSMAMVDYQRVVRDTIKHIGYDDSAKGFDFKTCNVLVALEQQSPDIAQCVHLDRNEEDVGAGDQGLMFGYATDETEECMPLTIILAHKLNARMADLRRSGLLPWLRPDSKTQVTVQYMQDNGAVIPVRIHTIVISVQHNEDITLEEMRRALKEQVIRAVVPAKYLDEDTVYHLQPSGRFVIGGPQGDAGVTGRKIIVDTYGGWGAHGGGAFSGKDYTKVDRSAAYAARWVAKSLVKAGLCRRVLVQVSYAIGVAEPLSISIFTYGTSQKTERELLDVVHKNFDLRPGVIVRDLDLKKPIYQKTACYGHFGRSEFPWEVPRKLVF
UniProt P67809, whole entry: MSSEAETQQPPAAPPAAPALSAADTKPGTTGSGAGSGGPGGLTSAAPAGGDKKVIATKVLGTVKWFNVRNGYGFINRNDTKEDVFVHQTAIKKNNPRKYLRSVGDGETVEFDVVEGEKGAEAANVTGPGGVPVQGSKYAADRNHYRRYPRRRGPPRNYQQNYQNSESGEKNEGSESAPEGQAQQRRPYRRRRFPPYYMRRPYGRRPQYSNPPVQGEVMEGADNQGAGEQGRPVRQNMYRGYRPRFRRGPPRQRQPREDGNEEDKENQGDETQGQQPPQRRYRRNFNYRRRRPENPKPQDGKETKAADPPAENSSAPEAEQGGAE
UniProt P78406: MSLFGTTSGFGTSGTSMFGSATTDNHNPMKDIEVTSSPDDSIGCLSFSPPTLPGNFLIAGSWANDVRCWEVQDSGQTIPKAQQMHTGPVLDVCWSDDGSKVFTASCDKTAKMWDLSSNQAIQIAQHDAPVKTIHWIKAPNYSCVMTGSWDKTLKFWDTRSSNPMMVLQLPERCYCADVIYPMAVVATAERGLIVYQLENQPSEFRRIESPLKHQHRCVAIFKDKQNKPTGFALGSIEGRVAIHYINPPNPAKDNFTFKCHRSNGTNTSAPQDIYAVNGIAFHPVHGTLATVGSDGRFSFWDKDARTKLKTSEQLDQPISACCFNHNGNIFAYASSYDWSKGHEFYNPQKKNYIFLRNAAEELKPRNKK
UniProt P53677: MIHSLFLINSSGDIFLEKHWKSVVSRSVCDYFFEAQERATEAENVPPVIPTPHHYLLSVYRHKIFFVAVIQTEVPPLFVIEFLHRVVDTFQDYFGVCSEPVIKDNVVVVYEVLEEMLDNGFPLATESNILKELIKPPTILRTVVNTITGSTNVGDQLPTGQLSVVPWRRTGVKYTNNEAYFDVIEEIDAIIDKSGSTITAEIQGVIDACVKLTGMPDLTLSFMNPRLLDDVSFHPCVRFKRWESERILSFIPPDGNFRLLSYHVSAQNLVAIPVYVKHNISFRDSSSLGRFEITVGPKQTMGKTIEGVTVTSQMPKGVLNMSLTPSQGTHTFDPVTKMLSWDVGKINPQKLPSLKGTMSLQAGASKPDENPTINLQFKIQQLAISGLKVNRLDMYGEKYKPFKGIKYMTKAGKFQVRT
UniProt P57081: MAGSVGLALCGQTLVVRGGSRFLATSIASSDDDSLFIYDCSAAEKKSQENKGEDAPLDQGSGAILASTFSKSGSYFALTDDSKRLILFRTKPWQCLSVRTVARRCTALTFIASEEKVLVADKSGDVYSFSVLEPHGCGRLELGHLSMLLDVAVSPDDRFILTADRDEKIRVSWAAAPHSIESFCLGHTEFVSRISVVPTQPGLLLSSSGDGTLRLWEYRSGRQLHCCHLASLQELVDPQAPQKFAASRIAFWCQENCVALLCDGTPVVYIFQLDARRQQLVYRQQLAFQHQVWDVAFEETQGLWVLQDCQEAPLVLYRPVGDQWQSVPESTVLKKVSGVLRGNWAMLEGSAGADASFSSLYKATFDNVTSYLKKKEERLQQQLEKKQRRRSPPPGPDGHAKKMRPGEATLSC
UniProt P57772: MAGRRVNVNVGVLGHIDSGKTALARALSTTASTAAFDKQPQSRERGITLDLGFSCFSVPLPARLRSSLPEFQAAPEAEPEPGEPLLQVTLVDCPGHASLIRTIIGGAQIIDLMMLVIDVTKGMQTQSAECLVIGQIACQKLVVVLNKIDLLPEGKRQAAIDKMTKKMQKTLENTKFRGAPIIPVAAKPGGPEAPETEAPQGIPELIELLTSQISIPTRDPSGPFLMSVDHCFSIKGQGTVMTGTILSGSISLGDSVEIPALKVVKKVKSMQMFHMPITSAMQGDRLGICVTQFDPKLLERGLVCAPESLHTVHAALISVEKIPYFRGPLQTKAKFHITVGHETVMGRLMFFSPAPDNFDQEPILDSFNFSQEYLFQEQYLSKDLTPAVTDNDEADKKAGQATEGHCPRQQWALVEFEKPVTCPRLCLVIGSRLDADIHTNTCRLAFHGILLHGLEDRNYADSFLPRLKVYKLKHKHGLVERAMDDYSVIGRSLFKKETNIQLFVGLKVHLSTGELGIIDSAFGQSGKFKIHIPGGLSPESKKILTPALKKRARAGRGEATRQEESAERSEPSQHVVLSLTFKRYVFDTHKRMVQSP

37 targets from the supplement of paper PMC6411743 can be followed below.

Compound in one assay: Nc1nc2c(ncn2[C@@H]2O[C@H](COP(=O)(O)OP(=O)(O)OP(=O)(O)O)[C@@H](O)[C@H]2O)c(=O)[nH]1 [guanosine triphosphate]
In words: NP40-soluble protein abundance relative to vehicle (solubility fold change) (ratio); higher = more soluble protein in presence of GTP. The conditions noted are these: concentration: 2mM. The method, boiled down:
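In three independent experiments, Jurkat crude lysate made by Dounce homogenisation was treated for 10 min at room temperature and then 3 min at 37 °C with eight concentrations ranging from 0.1 to 10 mM. It was then solubilised with 0.8% NP40 plus benzonase for 60 min at 4 °C and ultracentrifuged. The supernatant was TMT-labelled for LC-MS/MS, and each value is the fold change against the detergent-processed vehicle for the same replicate, using vsn-normalised intensities.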
On to SRP54 (UniProt P61011), for which the NP40-soluble protein abundance amounted to 1.003 ± 0.0096.

Consider UniProt P61160 and related entries, for which the NP40-soluble protein abundance turned out to be 0.969 ± 0.051.

As to UniProt P53367 and related entries, the NP40-soluble protein abundance is 0.947 ± 0.039.

Take UniProt P61026: the NP40-soluble protein abundance amounted to 0.852 ± 0.021.

Take UniProt P82970 and related entries: the NP40-soluble protein abundance is 0.908 ± 0.018.

On to UniProt P98095 and related entries, for which the NP40-soluble protein abundance was 1.04 ± 0.036.

Consider UniProt P84103 and related entries, for which the NP40-soluble protein abundance was determined as 1.03 ± 0.068.

With UniProt P78527, the NP40-soluble protein abundance came out at 1.21 ± 0.26.

Take VASP (UniProt P50552): the NP40-soluble protein abundance was found to be 0.907 ± 0.14.

Take UniProt P55039 and related entries: the NP40-soluble protein abundance came to 0.944 ± 0.079.

Regarding UniProt P61163, the NP40-soluble protein abundance was determined as 1.13 ± 0.21.

On to UniProt P63151 and related entries, for which the NP40-soluble protein abundance was determined as 0.931 ± 0.083.

As for MRPS15 (UniProt P82914), the NP40-soluble protein abundance worked out at 1.47 ± 0.33.

On to GTF2A1 (UniProt P52655), for which the NP40-soluble protein abundance was determined as 0.992 ± 0.01.

Turning to RAB2A (UniProt P61019), the NP40-soluble protein abundance is 0.854 ± 0.034.

For COPB1 (UniProt P53618), the NP40-soluble protein abundance stood at 1.05 ± 0.11.

As to UniProt P63272, the NP40-soluble protein abundance amounted to 0.97 ± 0.012.

Turning to RPL10A (UniProt P62906), the NP40-soluble protein abundance came out at 0.828 ± 0.059.

Turning to UniProt P55265 and related entries, the NP40-soluble protein abundance worked out at 1.09 ± 0.082.

As for UniProt P55060 and related entries, the NP40-soluble protein abundance turned out to be 0.94 ± 0.037.

As for UniProt P61962, the NP40-soluble protein abundance came out at 1.04 ± 0.1.

For the target MAT1A (UniProt Q00266), the NP40-soluble protein abundance was 1.05 ± 0.13.

Consider UniProt P62081, for which the NP40-soluble protein abundance was 1.07 ± 0.15.

On to YBX1 (UniProt P67809), for which the NP40-soluble protein abundance was determined as 1.04 ± 0.17.

UniProt P62249: the NP40-soluble protein abundance is 0.992 ± 0.23.

As to UniProt P78406 and related entries, the NP40-soluble protein abundance amounted to 0.986 ± 0.049.

Consider AP3M2 (UniProt P53677), for which the NP40-soluble protein abundance stood at 0.955 ± 0.1.

For UniProt P57081 and related entries, the NP40-soluble protein abundance came to 1.04 ± 0.076.

With TPMT (UniProt P51580), the NP40-soluble protein abundance was 0.931 ± 0.083.

On to UniProt P57772 and related entries, for which the NP40-soluble protein abundance came out at 1.03 ± 0.049.

For the target UniProt P52209 and related entries, the NP40-soluble protein abundance was 0.883 ± 0.034.

On to UniProt P62829, for which the NP40-soluble protein abundance amounted to 0.941 ± 0.18.

As for UniProt P56134 and related entries, the NP40-soluble protein abundance amounted to 0.906 ± 0.037.

CPT1A (UniProt P50416): the NP40-soluble protein abundance came out at 1.04 ± 0.13.

With UniProt P55769, the NP40-soluble protein abundance was found to be 1.11 ± 0.036.

Take UniProt P62269: the NP40-soluble protein abundance was found to be 0.934 ± 0.19.

Turning to DSTN (UniProt P60981), the NP40-soluble protein abundance was found to be 0.91 ± 0.046.

Staying with this assay, now noted: concentration: 4mM.
With SRP54 (UniProt P61011), the NP40-soluble protein abundance is 1.03 ± 0.013.

As to UniProt P61160 and related entries, the NP40-soluble protein abundance stood at 0.939 ± 0.057.

For the target UniProt P53367 and related entries, the NP40-soluble protein abundance was determined as 0.94 ± 0.07.

For UniProt P61026, the NP40-soluble protein abundance came to 0.846 ± 0.1.

As to UniProt P82970 and related entries, the NP40-soluble protein abundance stood at 0.879 ± 0.012.

For UniProt P98095 and related entries, the NP40-soluble protein abundance stood at 1.02 ± 0.067.

As for UniProt P84103 and related entries, the NP40-soluble protein abundance came out at 0.987 ± 0.041.

As to UniProt P78527, the NP40-soluble protein abundance is 1.23 ± 0.24.

Consider VASP (UniProt P50552), for which the NP40-soluble protein abundance worked out at 0.897 ± 0.12.

On to UniProt P55039 and related entries, for which the NP40-soluble protein abundance worked out at 0.951 ± 0.059.

For the target UniProt P61163, the NP40-soluble protein abundance turned out to be 1.15 ± 0.16.

As for UniProt P63151 and related entries, the NP40-soluble protein abundance was found to be 0.955 ± 0.079.

MRPS15 (UniProt P82914): the NP40-soluble protein abundance turned out to be 1.54 ± 0.41.

With GTF2A1 (UniProt P52655), the NP40-soluble protein abundance amounted to 0.992 ± 0.054.

With RAB2A (UniProt P61019), the NP40-soluble protein abundance turned out to be 0.818 ± 0.054.

On to COPB1 (UniProt P53618), for which the NP40-soluble protein abundance came out at 1.04 ± 0.12.

Take UniProt P63272: the NP40-soluble protein abundance was determined as 0.955 ± 0.028.

With RPL10A (UniProt P62906), the NP40-soluble protein abundance is 0.682 ± 0.079.

Consider UniProt P55265 and related entries, for which the NP40-soluble protein abundance is 1.13 ± 0.09.

For the target UniProt P55060 and related entries, the NP40-soluble protein abundance worked out at 0.932 ± 0.033.

On to UniProt P61962, for which the NP40-soluble protein abundance was 1.02 ± 0.057.

As to MAT1A (UniProt Q00266), the NP40-soluble protein abundance was determined as 1.01 ± 0.13.

As for UniProt P62081, the NP40-soluble protein abundance turned out to be 1.09 ± 0.22.

YBX1 (UniProt P67809): the NP40-soluble protein abundance amounted to 0.991 ± 0.1.

Consider UniProt P62249, for which the NP40-soluble protein abundance was found to be 0.907 ± 0.29.

As for UniProt P78406 and related entries, the NP40-soluble protein abundance is 1.02 ± 0.053.

With AP3M2 (UniProt P53677), the NP40-soluble protein abundance was 0.943 ± 0.13.

UniProt P57081 and related entries: the NP40-soluble protein abundance was found to be 0.986 ± 0.038.

For the target TPMT (UniProt P51580), the NP40-soluble protein abundance worked out at 0.893 ± 0.1.

With UniProt P57772 and related entries, the NP40-soluble protein abundance was found to be 1.05 ± 0.075.

Turning to UniProt P52209 and related entries, the NP40-soluble protein abundance worked out at 0.881 ± 0.036.

Consider UniProt P62829, for which the NP40-soluble protein abundance worked out at 0.886 ± 0.16.

With UniProt P56134 and related entries, the NP40-soluble protein abundance came out at 1.01 ± 0.18.

Turning to CPT1A (UniProt P50416), the NP40-soluble protein abundance stood at 1.06 ± 0.1.

As to UniProt P55769, the NP40-soluble protein abundance turned out to be 1.22 ± 0.065.

Turning to UniProt P62269, the NP40-soluble protein abundance is 0.862 ± 0.22.

DSTN (UniProt P60981): the NP40-soluble protein abundance was 0.894 ± 0.013.

Still in this assay, the particulars now being: concentration: 6mM.
With SRP54 (UniProt P61011), the NP40-soluble protein abundance came to 1.03 ± 0.018.

On to UniProt P61160 and related entries, for which the NP40-soluble protein abundance was found to be 0.992 ± 0.058.

As for UniProt P53367 and related entries, the NP40-soluble protein abundance was found to be 0.953 ± 0.069.

For UniProt P61026, the NP40-soluble protein abundance amounted to 0.848 ± 0.011.

As to UniProt P82970 and related entries, the NP40-soluble protein abundance turned out to be 0.927 ± 0.059.

With UniProt P98095 and related entries, the NP40-soluble protein abundance was found to be 1.03 ± 0.075.

Consider UniProt P84103 and related entries, for which the NP40-soluble protein abundance amounted to 1.06 ± 0.067.

On to UniProt P78527, for which the NP40-soluble protein abundance was 1.21 ± 0.24.

As to VASP (UniProt P50552), the NP40-soluble protein abundance was 0.896 ± 0.12.

With UniProt P55039 and related entries, the NP40-soluble protein abundance was 0.905 ± 0.054.

Take UniProt P61163: the NP40-soluble protein abundance stood at 1.12 ± 0.19.

With UniProt P63151 and related entries, the NP40-soluble protein abundance worked out at 0.887 ± 0.071.

Turning to MRPS15 (UniProt P82914), the NP40-soluble protein abundance was 1.49 ± 0.4.

For GTF2A1 (UniProt P52655), the NP40-soluble protein abundance came out at 0.9 ± 0.075.

Turning to RAB2A (UniProt P61019), the NP40-soluble protein abundance worked out at 0.839 ± 0.036.

With COPB1 (UniProt P53618), the NP40-soluble protein abundance amounted to 1.02 ± 0.11.

For the target UniProt P63272, the NP40-soluble protein abundance was 0.95 ± 0.021.

In the case of RPL10A (UniProt P62906), the NP40-soluble protein abundance was determined as 0.642 ± 0.075.

On to UniProt P55265 and related entries, for which the NP40-soluble protein abundance was 1.17 ± 0.099.

For the target UniProt P55060 and related entries, the NP40-soluble protein abundance was 0.917 ± 0.043.

As to UniProt P61962, the NP40-soluble protein abundance came out at 1.01 ± 0.092.

As for MAT1A (UniProt Q00266), the NP40-soluble protein abundance is 0.963 ± 0.075.

Take UniProt P62081: the NP40-soluble protein abundance was 1.05 ± 0.18.

With YBX1 (UniProt P67809), the NP40-soluble protein abundance came out at 1.03 ± 0.13.

On to UniProt P62249, for which the NP40-soluble protein abundance is 0.87 ± 0.28.

UniProt P78406 and related entries: the NP40-soluble protein abundance is 1.06 ± 0.083.

AP3M2 (UniProt P53677): the NP40-soluble protein abundance was 0.957 ± 0.12.

Consider UniProt P57081 and related entries, for which the NP40-soluble protein abundance was 0.994 ± 0.1.

As to TPMT (UniProt P51580), the NP40-soluble protein abundance came to 0.894 ± 0.081.

For UniProt P57772 and related entries, the NP40-soluble protein abundance stood at 1.03 ± 0.054.

Consider UniProt P52209 and related entries, for which the NP40-soluble protein abundance turned out to be 0.875 ± 0.023.

With UniProt P62829, the NP40-soluble protein abundance was found to be 0.844 ± 0.17.

UniProt P56134 and related entries: the NP40-soluble protein abundance stood at 0.984 ± 0.027.

In the case of CPT1A (UniProt P50416), the NP40-soluble protein abundance is 1.05 ± 0.13.

Turning to UniProt P55769, the NP40-soluble protein abundance was 1.315 ± 0.0069.

For UniProt P62269, the NP40-soluble protein abundance is 0.811 ± 0.24.

For DSTN (UniProt P60981), the NP40-soluble protein abundance stood at 0.898 ± 0.041.
